These are yes or no findings as the source states them, for the method shown. Sequences can lack the tags named with a protein.
Target: T1, human eIF2β 53–136 (human, UniProt P20042 53-136)
T1 construct: human eIF2 beta subunit, residues 53-136, carrying two K-boxes; also called eIF2β_(53–135)
Assay: ITC; a solution of eIF2β 53–136 injected with human 5MP1 constructs; performed as described previously (16); both purified

Chains of the proteins cited; added tags and fusions are not shown. Residues count along the entry.
UniProt P20042, residues 53-136: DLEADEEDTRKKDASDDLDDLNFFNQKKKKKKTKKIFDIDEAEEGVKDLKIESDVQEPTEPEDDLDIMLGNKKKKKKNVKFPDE

B1: polyhistidine-tagged human 5MP1 N-terminal domain (aa. 1–245) (domain or fragment, UniProt Q9Y6E2 1-245)
chain: MNKHQKPVLTGQRFKTRKRDEKEKFEPTVFRDTLVQGLNEAGDDLEAVAKFLDSTGSRLDYRRYADTLFDILVAGSMLAPGGTRIDDGDKTKMTNHCVFSANEDHETIRNYAQVFNKLIRRYKYLEKAFEDEMKKLLLFLKAFSETEQTKLAMLSGILLGNGTLPATILTSLFTDSLVKEGIAASFAVKLFKAWMAEKDANSVTSSLRKANLDKRLLELFPVNRQSVDHFAKYFTDAGLKELSDF
binding: no binding
